Assay results from publication PMC10614411, “Endometrial cancer (EC) derived G3BP1 overexpression and mutant promote EC tumorigenesis and metastasis via SPOP/ERα axis” (Cell Communication and Signaling : CCS, 2023).
No constants are given. Whether binding was seen depends on the method and setting. Binding seen in cells or lysates may run through a third protein. Some binding calls cover weakened binding; strength is not graded here.

Amino acid sequences for entries named in this document (tags omitted). A change or cut given only in a name is not applied to a line headed by its entry.
UniProt O43791: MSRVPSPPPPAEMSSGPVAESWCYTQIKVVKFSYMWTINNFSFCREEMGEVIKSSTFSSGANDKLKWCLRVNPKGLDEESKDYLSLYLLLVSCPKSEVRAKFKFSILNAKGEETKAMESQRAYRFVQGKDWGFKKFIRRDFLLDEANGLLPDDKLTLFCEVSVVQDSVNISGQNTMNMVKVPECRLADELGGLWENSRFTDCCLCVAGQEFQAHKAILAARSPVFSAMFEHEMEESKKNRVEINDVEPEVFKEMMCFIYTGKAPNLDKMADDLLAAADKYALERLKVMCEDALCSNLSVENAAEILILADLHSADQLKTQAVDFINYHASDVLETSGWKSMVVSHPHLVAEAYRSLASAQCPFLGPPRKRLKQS
UniProt P03372: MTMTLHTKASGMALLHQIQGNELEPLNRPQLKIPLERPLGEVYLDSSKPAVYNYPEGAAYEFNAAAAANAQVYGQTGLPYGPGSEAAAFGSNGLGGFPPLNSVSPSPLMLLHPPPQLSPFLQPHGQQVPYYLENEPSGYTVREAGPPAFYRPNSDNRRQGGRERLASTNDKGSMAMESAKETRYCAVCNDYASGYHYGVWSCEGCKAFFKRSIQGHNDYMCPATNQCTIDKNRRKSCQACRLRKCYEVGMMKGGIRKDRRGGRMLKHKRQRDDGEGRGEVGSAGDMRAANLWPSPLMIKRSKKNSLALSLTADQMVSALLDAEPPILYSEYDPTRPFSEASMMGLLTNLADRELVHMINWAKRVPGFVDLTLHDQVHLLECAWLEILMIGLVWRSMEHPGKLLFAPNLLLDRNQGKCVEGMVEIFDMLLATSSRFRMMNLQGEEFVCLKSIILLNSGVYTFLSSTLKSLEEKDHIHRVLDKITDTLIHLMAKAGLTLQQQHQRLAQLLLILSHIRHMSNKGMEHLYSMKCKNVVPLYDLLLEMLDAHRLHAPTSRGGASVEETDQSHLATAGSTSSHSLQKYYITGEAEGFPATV
UniProt Q13283: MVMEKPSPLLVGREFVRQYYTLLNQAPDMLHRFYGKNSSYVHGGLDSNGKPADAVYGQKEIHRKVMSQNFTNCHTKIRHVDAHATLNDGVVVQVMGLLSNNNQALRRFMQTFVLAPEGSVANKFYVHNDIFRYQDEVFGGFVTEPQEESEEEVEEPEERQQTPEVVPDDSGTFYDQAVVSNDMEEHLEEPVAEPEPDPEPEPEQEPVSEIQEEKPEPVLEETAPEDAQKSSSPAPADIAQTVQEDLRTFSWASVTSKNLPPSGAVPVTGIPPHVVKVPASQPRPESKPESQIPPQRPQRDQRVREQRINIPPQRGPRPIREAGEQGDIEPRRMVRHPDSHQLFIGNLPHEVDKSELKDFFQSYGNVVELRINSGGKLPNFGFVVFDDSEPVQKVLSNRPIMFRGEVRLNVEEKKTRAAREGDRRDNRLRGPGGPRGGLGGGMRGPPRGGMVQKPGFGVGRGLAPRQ

Target: Speckle-type POZ protein (SPOP), expressed in HEK293T cells (UniProt O43791)
Experiment: co-IP; HEK 293T cells transfected with the indicated constructs, MG132 for 8 h (30 uM in the methods, 25 uM in the legend), lysed in Medium RIPA buffer; anti-Flag M2 agarose beads overnight, washed 3 times with BC100, eluted with FLAG peptide, Western blot; in one panel with increasing G3BP1

| binding | Substance |
| --- | --- |
| binds | Estrogen receptor alpha (ERα), expressed in HEK293T cells (from UniProt P03372 1-595) |
| binds | Ras-GTPase-activating protein binding protein 1 (G3BP1), wild type, expressed in HEK293T cells (from UniProt Q13283 1-466) |
| binds | G3BP1 Q392* (endometrial-cancer nonsense mutant), expressed in HEK293T cells (from UniProt Q13283 1-391) (domain or fragment) |
